{"source": "patent US8022089B2", "about": "“Isoxazoline-substituted benzamide compound and pesticide” (Nissan Chemical Industries, Ltd., priority 2004, dated 2011)", "tested_on": "cabbage moth (Plutella xylostella)", "assay": "Insecticidal test against cabbage moth (leaf dip)", "assay_type": "in vivo", "settings": "500 ppm chemical solution, second instar larva, after 6 days", "note": "Some of these results come from one statement about several compounds together. For at least one compound, name, drawing or mass did not settle the structure."}
{"smiles": "O=C(NCc1ccccc1)c1ccc(C2=NOC(c3cccc(Br)c3)(C(F)(F)F)C2)cc1", "note": "(racemic) [1-005]", "values": [{"measurement": "insecticidal rate (rate of dead insects)", "value": "≥ 80", "unit": "%"}]}
{"smiles": "O=C(NCC(F)(F)F)c1ccc(C2=NOC(c3ccc(Br)cc3)(C(F)(F)F)C2)cc1", "note": "(racemic) [1-006]", "values": [{"measurement": "insecticidal rate (rate of dead insects)", "value": "≥ 80", "unit": "%"}]}
{"smiles": "O=C(NCC(F)(F)F)c1ccc(C2=NOC(c3cccc(C(F)(F)F)c3)(C(F)(F)F)C2)cc1", "note": "(racemic) [1-015]", "values": [{"measurement": "insecticidal rate (rate of dead insects)", "value": "≥ 80", "unit": "%"}]}
{"smiles": "O=C(NCc1ccccc1)c1ccc(C2=NOC(c3cccc(C(F)(F)F)c3)(C(F)(F)F)C2)cc1", "note": "(racemic) [1-016]", "values": [{"measurement": "insecticidal rate (rate of dead insects)", "value": "≥ 80", "unit": "%"}]}
{"smiles": "O=C(NCC(F)(F)F)c1ccc(C2=NOC(c3cccc(OC(F)(F)F)c3)(C(F)(F)F)C2)cc1", "note": "(racemic) [1-025]", "values": [{"measurement": "insecticidal rate (rate of dead insects)", "value": "≥ 80", "unit": "%"}]}
{"smiles": "CSc1ccc(C2(C(F)(F)F)CC(c3ccc(C(=O)NCC(F)(F)F)cc3)=NO2)cc1", "note": "(racemic) [1-031]", "values": [{"measurement": "insecticidal rate (rate of dead insects)", "value": "≥ 80", "unit": "%"}]}
{"smiles": "O=C(NCC(F)(F)F)c1ccc(C2=NOC(c3cccc([N+](=O)[O-])c3)(C(F)(F)F)C2)cc1", "note": "(racemic) [1-040]", "values": [{"measurement": "insecticidal rate (rate of dead insects)", "value": "≥ 80", "unit": "%"}]}
{"smiles": "O=C(NCc1ccccc1)c1ccc(C2=NOC(c3cccc([N+](=O)[O-])c3)(C(F)(F)F)C2)cc1", "note": "(racemic) [1-041]", "values": [{"measurement": "insecticidal rate (rate of dead insects)", "value": "≥ 80", "unit": "%"}]}
{"smiles": "O=C(NCC1CC1)c1ccc(C2=NOC(c3ccc(F)c(F)c3)(C(F)(F)F)C2)cc1", "note": "(racemic) [1-053]", "values": [{"measurement": "insecticidal rate (rate of dead insects)", "value": "≥ 80", "unit": "%"}]}
{"smiles": "O=C(NC1CCCCC1)c1ccc(C2=NOC(c3ccc(Cl)c(Cl)c3)(C(F)(F)F)C2)cc1", "note": "(racemic) [1-076]", "values": [{"measurement": "insecticidal rate (rate of dead insects)", "value": "≥ 80", "unit": "%"}]}
{"smiles": "O=C(NCC1CCCCC1)c1ccc(C2=NOC(c3ccc(Cl)c(Cl)c3)(C(F)(F)F)C2)cc1", "note": "(racemic) [1-077]", "values": [{"measurement": "insecticidal rate (rate of dead insects)", "value": "≥ 80", "unit": "%"}]}
{"smiles": "CCO[Si](C)(CCCNC(=O)c1ccc(C2=NOC(c3ccc(Cl)c(Cl)c3)(C(F)(F)F)C2)cc1)OCC", "note": "(centres unmarked) [1-098]", "values": [{"measurement": "insecticidal rate (rate of dead insects)", "value": "≥ 80", "unit": "%"}]}
{"smiles": "NC(=O)CNC(=O)c1ccc(C2=NOC(c3ccc(Cl)c(Cl)c3)(C(F)(F)F)C2)cc1", "note": "(centres unmarked) [1-101]", "values": [{"measurement": "insecticidal rate (rate of dead insects)", "value": "≥ 80", "unit": "%"}]}
{"smiles": "C=CCNC(=O)c1ccc(C2=NOC(c3ccc(Cl)c(Cl)c3)(C(F)(F)F)C2)cc1", "note": "(centres unmarked) [1-102]", "values": [{"measurement": "insecticidal rate (rate of dead insects)", "value": "≥ 80", "unit": "%"}]}
{"smiles": "O=C(NCc1ccccc1C(F)(F)F)c1ccc(C2=NOC(c3ccc(Cl)c(Cl)c3)(C(F)(F)F)C2)cc1", "note": "(centres unmarked) [1-113]", "values": [{"measurement": "insecticidal rate (rate of dead insects)", "value": "≥ 80", "unit": "%"}]}
{"smiles": "O=C(NCc1cccc(C(F)(F)F)c1)c1ccc(C2=NOC(c3ccc(Cl)c(Cl)c3)(C(F)(F)F)C2)cc1", "note": "(centres unmarked) [1-114]", "values": [{"measurement": "insecticidal rate (rate of dead insects)", "value": "≥ 80", "unit": "%"}]}
{"smiles": "O=C(Nc1cccnc1)c1ccc(C2=NOC(c3ccc(Cl)c(Cl)c3)(C(F)(F)F)C2)cc1", "note": "(centres unmarked) [1-171]", "values": [{"measurement": "insecticidal rate (rate of dead insects)", "value": "≥ 80", "unit": "%"}]}
{"smiles": "O=C(Nc1ccncc1)c1ccc(C2=NOC(c3ccc(Cl)c(Cl)c3)(C(F)(F)F)C2)cc1", "note": "(centres unmarked) [1-172]", "values": [{"measurement": "insecticidal rate (rate of dead insects)", "value": "≥ 80", "unit": "%"}]}
{"smiles": "CN(C)NC(=O)c1ccc(C2=NOC(c3ccc(Cl)c(Cl)c3)(C(F)(F)F)C2)cc1", "note": "(centres unmarked) [1-174]", "values": [{"measurement": "insecticidal rate (rate of dead insects)", "value": "≥ 80", "unit": "%"}]}
{"smiles": "O=C(NCC(F)(F)F)c1ccc(C2=NOC(c3cc(Br)cc(Br)c3)(C(F)(F)F)C2)cc1", "note": "(centres unmarked) [1-207]", "values": [{"measurement": "insecticidal rate (rate of dead insects)", "value": "≥ 80", "unit": "%"}]}
{"smiles": "Cc1cc(C2(C(F)(F)F)CC(c3ccc(C(=O)NCc4ccccc4)cc3)=NO2)ccc1F", "note": "(centres unmarked) [1-209]", "values": [{"measurement": "insecticidal rate (rate of dead insects)", "value": "≥ 80", "unit": "%"}]}
{"smiles": "O=C(NCC(F)(F)F)c1ccc(C2=NOC(c3cc(F)c(F)c(F)c3)(C(F)(F)F)C2)cc1", "note": "(centres unmarked) [1-225]", "values": [{"measurement": "insecticidal rate (rate of dead insects)", "value": "≥ 80", "unit": "%"}]}
{"smiles": "O=C(NCc1ccccc1)c1ccc(C2=NOC(c3cc(F)c(F)c(F)c3)(C(F)(F)F)C2)cc1", "note": "(centres unmarked) [1-226]", "values": [{"measurement": "insecticidal rate (rate of dead insects)", "value": "≥ 80", "unit": "%"}]}
